This assay deals with mTOR effectors 4EBP1, p70S6K1/2 and AKT. Nature of the assay: Western blot of downstream mTOR effectors in PC3 cells. Format: cell-based, human. Conditions: PP242 2.5 μM, rapamycin 50 nM, 3-h treatment. In general terms: In western blotting, separated proteins are transferred to a membrane and probed.

For the compound `CC(C)n1nc(-c2cc3cc(O)ccc3[nH]2)c2c(N)ncnc21` [PP242], the “activity of downstream mTOR effectors 4EBP1, p70S6K1/2 and AKT” value is “significantly inhibits”.

The values are drawn from PMC3663483 (Nature, 2012).
